These are yes or no findings as the source states them, for the method shown. In cells and extracts the contact can be indirect. Where a sequence is shown, tags or fusion partners need not be part of it.
Legend:
Experiment in all cases: co-IP
[1] = target: T1, FLAG-tagged human wildtype La (human) (UniProt P05455)
T1 sequence: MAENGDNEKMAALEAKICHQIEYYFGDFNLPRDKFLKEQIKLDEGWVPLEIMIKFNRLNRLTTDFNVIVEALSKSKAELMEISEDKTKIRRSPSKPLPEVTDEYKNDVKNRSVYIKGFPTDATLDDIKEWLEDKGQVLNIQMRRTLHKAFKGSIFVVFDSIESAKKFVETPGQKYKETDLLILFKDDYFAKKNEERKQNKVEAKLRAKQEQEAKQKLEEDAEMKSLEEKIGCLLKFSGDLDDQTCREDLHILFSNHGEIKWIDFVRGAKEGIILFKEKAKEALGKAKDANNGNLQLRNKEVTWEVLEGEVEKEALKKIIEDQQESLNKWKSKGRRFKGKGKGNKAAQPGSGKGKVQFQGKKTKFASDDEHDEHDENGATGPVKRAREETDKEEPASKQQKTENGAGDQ

[2] = target: T2, human wildtype LARP6 (precipitated with anti-FLAG antibody) (human) (UniProt Q9BRS8)
T2 sequence: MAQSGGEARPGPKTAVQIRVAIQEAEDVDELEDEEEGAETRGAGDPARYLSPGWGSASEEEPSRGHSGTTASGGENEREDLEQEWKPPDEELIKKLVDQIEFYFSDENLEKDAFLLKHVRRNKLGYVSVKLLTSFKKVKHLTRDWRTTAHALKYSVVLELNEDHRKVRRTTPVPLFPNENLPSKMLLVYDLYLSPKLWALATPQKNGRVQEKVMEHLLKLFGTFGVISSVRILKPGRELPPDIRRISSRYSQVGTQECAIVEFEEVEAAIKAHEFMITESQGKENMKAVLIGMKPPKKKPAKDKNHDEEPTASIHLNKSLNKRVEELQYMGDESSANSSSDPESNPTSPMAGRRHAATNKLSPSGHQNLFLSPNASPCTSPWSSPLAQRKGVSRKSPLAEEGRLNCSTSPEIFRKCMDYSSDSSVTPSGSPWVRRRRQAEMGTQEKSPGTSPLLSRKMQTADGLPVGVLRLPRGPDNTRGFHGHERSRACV

[3] = target: T3, human wildtype LARP7 (precipitated with anti-FLAG antibody) (human) (UniProt Q4G0J3)
T3 sequence: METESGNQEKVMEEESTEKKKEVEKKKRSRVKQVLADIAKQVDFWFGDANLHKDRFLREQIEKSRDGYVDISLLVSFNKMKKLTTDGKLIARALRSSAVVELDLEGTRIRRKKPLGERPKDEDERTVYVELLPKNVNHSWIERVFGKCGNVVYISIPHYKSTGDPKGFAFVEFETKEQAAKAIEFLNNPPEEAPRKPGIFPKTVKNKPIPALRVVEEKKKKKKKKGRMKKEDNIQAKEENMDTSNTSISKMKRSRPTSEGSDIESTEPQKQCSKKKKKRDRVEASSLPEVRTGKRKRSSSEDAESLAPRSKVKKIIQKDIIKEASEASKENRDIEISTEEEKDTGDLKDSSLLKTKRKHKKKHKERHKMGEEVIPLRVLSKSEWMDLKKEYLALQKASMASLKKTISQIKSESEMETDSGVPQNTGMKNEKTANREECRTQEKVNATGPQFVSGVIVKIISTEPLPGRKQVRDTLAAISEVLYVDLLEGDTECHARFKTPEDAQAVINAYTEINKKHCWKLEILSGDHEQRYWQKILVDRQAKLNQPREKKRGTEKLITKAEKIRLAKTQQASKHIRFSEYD

Measured: binding

endogenous poly(A)-binding protein (PABP) (human (endogenous in HEK293T))
no binding: all assays above

Source: doi:10.1101/491274
